These are yes or no findings as the source states them, for the method shown. Some binding calls cover weakened binding; strength is not graded here.

Sequences of proteins named here, by UniProt entry; tags and fusion partners are left off. Residues count along the entry.
UniProt P43121, residues 24-646: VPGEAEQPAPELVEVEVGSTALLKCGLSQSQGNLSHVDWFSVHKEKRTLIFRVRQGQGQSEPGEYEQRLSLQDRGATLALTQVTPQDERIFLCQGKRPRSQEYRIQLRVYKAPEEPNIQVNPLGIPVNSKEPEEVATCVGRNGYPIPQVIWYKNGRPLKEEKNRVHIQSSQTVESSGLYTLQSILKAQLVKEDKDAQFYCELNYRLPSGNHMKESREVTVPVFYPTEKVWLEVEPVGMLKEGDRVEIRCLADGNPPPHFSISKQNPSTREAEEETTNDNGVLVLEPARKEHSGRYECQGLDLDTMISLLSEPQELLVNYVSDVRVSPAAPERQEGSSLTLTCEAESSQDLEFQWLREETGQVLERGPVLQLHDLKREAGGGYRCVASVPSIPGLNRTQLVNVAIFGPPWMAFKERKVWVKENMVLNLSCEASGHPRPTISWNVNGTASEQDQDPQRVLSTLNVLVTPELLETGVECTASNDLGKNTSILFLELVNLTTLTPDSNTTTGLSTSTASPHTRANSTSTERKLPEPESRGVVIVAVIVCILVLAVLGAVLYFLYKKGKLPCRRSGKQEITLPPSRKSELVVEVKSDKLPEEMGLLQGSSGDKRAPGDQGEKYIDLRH

The record followed here is patent publication EP1382615A1.

In assay [1] the target is MCAM (cell surface glycoprotein MUC18 precursor) (human) (UniProt P43121). As to the kind of experiment: FACS on HT1080 cells vs Hs-27 control cells, 10 ug/ml scFv, FITC anti-E-tag detection.
The target is the same in assay [2]. As to the kind of experiment: Immunoprecipitation from HT1080 cell lysate on Streptactin Sepharose, SDS-PAGE, silver stain; band identified as MUC18/MCAM by MALDI-TOF (Example 10).

B1: scFv 6 (scFv)
scFv: EVQLLESGGGLVQPGGSLRLSCAASGFTFSSYAMSWVRQAPGKGLEWVSAISGSGGSTYYVDSVKGRFTISRDNSKNTLYLQMNSLRAEDTAVYYCARDIWGVTTAFDYWGQGTTVTVSSGGGGSGGGGSGGGGSALSSELTQDPAVSVALGQTVRITCQGDSLRSYYASWYQQKPGQAPVLVIYGKNKRPSGIPDRFSGSTSGDTASLSITGALADDEADYYCHSRDSSGDQILFGGGTKLTVLGAAAGAPVPYPDPLEPRGAASAWSHPQFEK
In the case of B1, the binding result in assay [1] and in assay [2] was “binds” each time.
